Out of some 52,000 sequences screened, about 210 (0.4%) were called active.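 How the source made its calls: active means gene whose silencing raises cell survival under the drug, median off-target-corrected z-score across its silencing RNAs 2 or more; inactive means the rest.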 The list shows a part of the results.
experiment: Resistance to Poly (ADP-Ribose) Polymerase inhibitor: Gene Identification via Genome-wide siRNA Screen; details: mouse BRCA2 R2336H ES cells, olaparib, CellTiter-Glo viability; stronger effect = higher value
In short: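 Genome-wide siRNA screen (3 siRNAs/gene, 20 nM) in mouse ES cells carrying hypomorphic BRCA2 R2336H; olaparib 500 nM added 48 h post-transfection, CellTiter-Glo viability 72 h later. Normalized to plate-median negative control; MAD z-scores, gene median, seed-adjusted.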

| Sequence | z-score |
| --- | --- |
| GCUAUUCGUUUCUUAUAACTT against Slc19a3 | inactive: 0.858 |
| GGGCAAUGGAAGAAUUCCUTT against BC030500 | inactive: 0.0082 |
| GGAAGAGGUUCAGAACAGATT against 4930540L03Rik | inactive: 0.892 |
| GGCUUGCCUUUUUUGCUAUTT against Olfr1404 | inactive: -0.657 |
| GGAUGCUUACGGGAGACGATT against Tmem9 | inactive: 0.542 |
| GCUAGCGAUAACAAGAUUGTT against A330009G12Rik | inactive: -0.0432 |
| CCAAUCAGGUUGAAUAAGATT against BC006909 | inactive: 1.46 |
| CCCUUAUCACAUGUGUGGATT against 5730436H21Rik | inactive: -0.966 |
| GGAAACUUCUUCCCGGUUGTT against Mlze | inactive: -2.89 |
| GAGUGCUAAGUAGGAAAGGTT against Olfr33 | inactive: -0.112 |
| GGUUAUUGAUGUGACGAUGTT against Rem2 | inactive: 0.147 |
| GGGAUAUUGAUAGUUUUUCTT against 2410007P03Rik | inactive: -0.672 |
| GGCUAGAAAUCAUCAAUGATT against Ntrk2 | inactive: 0.638 |
| GAAGUCCUGGGACUUUAUGTT against Nudt14 | inactive: -0.375 |
| GGAUGGUGAGGAGAGUUAATT against Gm466 | inactive: 1.99 |
| GGUGAAGGUACGAGUAAGATT against Prkra | inactive: -1.54 |
| GGAGACAGAAUGCACAUUUTT against Tff3 | inactive: -1.75 |
| CGCAGGACAUUUGGUUUUGTT against Ssxb2 | inactive: 1.82 |
| GGAAAAGAAAGGUCCUGAGTT against Klc3 | inactive: -0.119 |
| CGAAGAGGAUAGGCUACGCTT against Adrbk2 | inactive: 1.47 |
| CGAACCUCCAGUUAUUAGUTT against Chfr | inactive: -0.871 |
| CGACAACGAUAAGUUUGAATT against Fgg | inactive: 0.274 |
| GCCACUUCCGCAUAAUUGGTT against Setbp1 | inactive: 0.31 |

Taken from above:
In z-score, GAGUGCUAAGUAGGAAAGGTT against Olfr33 is listed with inactive: -0.112
In z-score, GCCACUUCCGCAUAAUUGGTT against Setbp1 is listed with inactive: 0.31

Further records.

| Sequence | z-score |
| --- | --- |
| GGGCUUCGAUGGAACUCCUTT against Col4a3 | inactive: -0.349 |
| CCCAUCCUGUAUCCACUAATT against Mlf2 | inactive: 0.951 |
| GGCUUUCUGUUAAAAAGCUTT against 1110059F07Rik | inactive: 0.837 |
| GGCAUGUAAUGAAUUCACATT against Pbx3 | inactive: 1.13 |
| GGAACUUAAGAACUUUCUATT against Calb1 | inactive: 1.37 |
| GGCCACUCAAUAUCAACGATT against Apaf1 | inactive: 0.427 |
| GCAUAGGAGAGACCAACAUTT against Zcchc10 | inactive: -1.75 |
| CCGUAUCACGCACUUAGUUTT against 2310075M15Rik | inactive: -0.835 |
| GCGUAAACAUUGUAACAACTT against Pkib | inactive: -0.2 |
| AGUGAAGAAAUGUUUGACATT against Raet1b | inactive: 1.94 |
| GCAGGGCAAUAUCUUCUACTT against Chst3 | inactive: -0.102 |
| GGAAAUAUUGAUGCUGCUGTT against 4922503N01Rik | inactive: -1.46 |
| GAGUUCGAUGUUCAGGAGCTT against Ndrg1 | inactive: 0.452 |
| CCUCAGCGGAGAAGAUGUATT against Adora1 | inactive: -0.334 |
| GCUAAUACUGAAAUCGAUGTT against 4931417A20 | inactive: 0.164 |
| GGAUUUCAUUAUCCUGUUUTT against 4932417D18Rik | inactive: -1.6 |
| GCACCAAUAGAGUUAGAAATT against Oprk1 | inactive: -1.06 |
| GGCUUUCCAAAGAUUAGUCTT against Arl1 | inactive: -1.25 |
| GGCAACUUGAUUGUAAACUTT against Zic2 | inactive: 0.377 |
| CGCGCAGAAUCAGAGCGAUTT against 6030457N17Rik | inactive: -0.489 |
| GCUCCAAAAGUCAAGACCGTT against Safb2 | inactive: -0.442 |
| CCAACAUGAUUGAGUCUUCTT against Lrp5 | inactive: -0.812 |
| CCCUCAACCUCCAACCACATT against Ceacam1 | inactive: -2.07 |

| Sequence | z-score |
| --- | --- |
| GGAAUACCUUUCAUCGAUUTT against Ampd2 | inactive: 0.37 |
| GGAAAUUCAGCCACAACUCTT against Htr4 | inactive: 0.217 |
| CCAAACUUAAACAUGUUGUTT against Ddx21 | inactive: -0.441 |
| GGACAAGUACAAGAAGAAGTT against Rfxap | inactive: 0.407 |
| CGACUUUCUAAGUCUCAACTT against Hyal1 | inactive: 0.679 |
| GGCUUUUCCAUCGAUGAGUTT against F2rl1 | inactive: -0.879 |
| GCACAUUUACAGCCUAAUGTT against 2700078E11Rik | inactive: -0.649 |
| GGAAUAAAUAACAUUUCCCTT against Parvg | inactive: 1.22 |
| GGAUGUCCUGAAAGAAAAATT against H2-M9 | inactive: -0.657 |
| CGACAAGGGUUCCCUAGAATT against Nkd2 | inactive: -0.513 |
| GGUUUAUUUCCAAAGUUGATT against 4732493F09Rik | inactive: 0.237 |
| CCGUGAUUUAUUUGGAGUGTT against Tpt1 | inactive: 0.941 |
| GGAAAGAAUUGAGAUCUAATT against Rhoq | inactive: 0.244 |
| GCACACCAACAAUGCUUUCTT against 1810054O13Rik | inactive: 0.231 |
| GGAUACAAAAAAUGAAGUCTT against Cbr3 | inactive: -0.122 |
| CGAUAAAUAACUCAGCAUGTT against Epha6 | inactive: -0.416 |
| GGAAGGACAAUCAGUUCCUTT against D130067I03Rik | inactive: -1.36 |
| GGCAAAAAAUCUCAUUUGUTT against Rock1 | inactive: -0.113 |
| GGUGGAGCACAUGUUCAGCTT against BC027246 | inactive: -0.295 |
| GCAUGACCAGCAGUUCCUUTT against Itsn1 | inactive: -1.41 |
| CCAGCACUCAAUCCUGUAATT against Olfr305 | inactive: -1.73 |

Reference: PubChem BioAssay AID1347423 (Functional Genomics Laboratory (NCATS/FGL), 2020)
